Laboratory results: PubChem BioAssay AID652054 (National Center for Advancing Translational Sciences (NCATS), 2013)
Screen size: about 360,000 compounds; about 9,100 (2.5%) were called active. This list was built around the results that the source calls inconclusive (neither active nor inactive); the mix of calls is not that of the screen. Rule as the data show it: active = max response below about -50%; inconclusive = no clear call, values can overlap the other calls; inactive = above that.

Chains of the proteins cited; added tags and fusions are not shown.
UniProt P35462, whole entry, looked up: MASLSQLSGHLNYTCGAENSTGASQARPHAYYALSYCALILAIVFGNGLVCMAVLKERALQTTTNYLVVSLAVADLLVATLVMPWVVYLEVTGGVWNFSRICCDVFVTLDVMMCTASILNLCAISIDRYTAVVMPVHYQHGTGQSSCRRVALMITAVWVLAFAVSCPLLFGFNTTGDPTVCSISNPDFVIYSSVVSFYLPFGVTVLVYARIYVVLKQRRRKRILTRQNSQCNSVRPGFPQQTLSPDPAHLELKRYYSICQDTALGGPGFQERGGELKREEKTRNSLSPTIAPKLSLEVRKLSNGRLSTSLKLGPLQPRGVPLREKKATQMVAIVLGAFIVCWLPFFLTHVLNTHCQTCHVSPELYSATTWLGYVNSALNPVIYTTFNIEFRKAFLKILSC

What follows are compounds tested against D(3) dopamine receptor (Homo sapiens) (UniProt P35462) (assay: qHTS of D3 Dopamine Receptor Antagonist: qHTS). Settings: D3R cells, DiscoveRx beta-arrestin luminescence, antagonist mode; hits give low values.
In short: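 Cells expressing the human receptor were seeded at 1500 cells/well, incubated overnight at 37 degrees C in 5% CO2, then exposed to library compounds with dopamine controls for 90 minutes at 37 degrees C before luminescent detection.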
% is scaled to controls: 0 for no effect and ±100 for the full control effect.

Structure (SMILES)	max response, negative = inhibition
O=C(OCc1ccccc1)N1CCC2CC1c1ccc(-c3ccc4c(c3)OCO4)cc12 (stereo unspecified)	active: -78.9%
CC(CC(=O)Nc1ccc2c(c1)c(=O)n(C)n2-c1ccccc1F)c1ccccc1 (stereo unspecified)	active: -89.5%
CCOC(=O)c1sc(C)c2c(=O)n(Cc3ccc(Cl)cc3)c(C)nc12	inconclusive: -30.6%
CC(=O)N1CCN(c2ccc(NC(=O)c3ccco3)cc2Cl)CC1	inactive: -7.77%
O=C(c1ccccc1C(F)(F)F)N1CCN(S(=O)(=O)c2ccccc2)CC1	inconclusive: -36.1%
Cc1ccc(-c2[nH]c3ccccc3c2SCCN)cc1	inactive: -3.26%
COc1cccc(/C=N/NC(=O)c2nnn(-c3nonc3N)c2-c2cccs2)c1	inconclusive: -34.5%
Cc1sc2ncnc(OCC(=O)NCc3cccs3)c2c1C	active: -82.8%
COc1ccc(Cl)cc1N(CC(=O)Nc1ccc2c(c1)OCO2)S(C)(=O)=O	inconclusive: -41.8%
CNC(=O)COC(=O)c1[nH]c(C)c(C(C)=O)c1C	active: -79.1%
N#Cc1c(N)c(C(=O)c2ccccc2)n2c1CCCC2	inconclusive: -40.6%
CCCS(=O)(=O)N1CCCC(C(=O)NCc2ccco2)C1 (stereo unspecified)	inconclusive: -32%
CCOc1ccc(C(=O)CC(NCc2cccs2)C(=O)O)cc1 (stereo unspecified)	inconclusive: -36.9%
CC(C)CC(=O)NC(NC(=S)Nc1sc2c(c1C#N)CCCC2)C(Cl)(Cl)Cl (stereo unspecified)	active: -83.2%
C=CCN(C(=O)CCS(=O)(=O)c1cccc2nsnc12)c1ccccc1	inactive: -9.12%
Cc1cc2oc(=O)cc(CN3CCN(Cc4ccccc4)CC3)c2cc1Cl	inconclusive: -34.3%
NC(=O)c1ccc(NC(=O)CSc2nnc(-c3ccncc3)n2Cc2ccco2)cc1	inactive: -6.95%
Cc1c(NC(=O)OCCNC(=O)Nc2ccccc2)sc(=S)n1C	inconclusive: -38.7%

Structure (SMILES)	max response, negative = inhibition
CCC(=O)Nc1cccc(NC(=O)c2ccc(C)c([N+](=O)[O-])c2)c1	inactive: 14.9%
O=[N+]([O-])c1ccc(N/N=C/c2cccc(O)c2)cc1	inconclusive: -36%
Cc1ccc(C(C)C)cc1OCCOCCN1CCCC1	active: -66.1%
Cn1nc(-c2ccc(Cl)cc2)c2cc(C(=O)NCCCN3CCCC3)sc21	inconclusive: -45.4%
CCN(CC)S(=O)(=O)c1ccc(C(=O)NCCOC(=O)c2ccc(F)cc2F)cc1	inactive: 1.55%
O=C(NC(c1ccccc1)c1cnccn1)C1CCN(CCOc2ccc(Cl)cc2Cl)CC1 (stereo unspecified)	active: -84.1%
COc1ccccc1CNC(=O)[C@H](C)NC(=O)C1CCN(C(=O)[C@@H]2CCCN2C(=O)OC(C)(C)C)CC1	inconclusive: -34.9%
c1ccc(-c2ccc(CNC3CC3)cc2)cc1	inactive: -13.7%
C[C@@H]1CN([C@@H](C)CO)C(=O)c2cc(NS(C)(=O)=O)ccc2O[C@H]1CN(C)Cc1ccc(Oc2ccccc2)cc1	inactive: -18.5%
COc1ccc(Br)cc1/C=N/N1CCN(Cc2ccccc2)CC1	inactive: 2.89%
Cc1ccc(-n2cnc3cc(NCc4cccs4)ccc32)cc1	inactive: -15%
O=S(=O)(/C=C/c1ccccc1)NC1CCCCCC1	inactive: -19.1%
CC(=O)N1CCN(C(=S)c2ccc(-c3ccc(Cl)cc3)o2)CC1	inconclusive: -49.3%
CCOC1=C2CN(S(=O)(=O)c3ccc(C)cc3)C(c3ccc(C)cc3)CC2N(S(=O)(=O)c2ccc(C)cc2)C(c2ccccc2)C1 (stereo unspecified)	inactive: -21.6%
CCN(CC)CC(O)Cn1c(C)c(-c2ccccc2)c2cc([N+](=O)[O-])ccc21 (stereo unspecified)	inconclusive: -30.8%
Cc1cccc(Cl)c1OCCCn1ccnc1	inconclusive: -30.6%
Cc1cccc(NC(=O)c2cccc(C(=O)Nc3cccc(C)n3)c2)n1	inactive: 3.06%
Fc1cccc(F)c1-c1nc(-c2ccncc2)no1	inactive: 2.56%
Cc1ccc(S(=O)(=O)NCc2cccnc2)cc1C(=O)N1CCCC1	inactive: 0%

Structure (SMILES)	max response, negative = inhibition
CCN(CC)CCOC(=O)C12CC3CC(CC(C3)C1)C2	inconclusive: -34%
Cc1cccc(C)c1NC(=O)CNC(=O)c1ccc(N2CCCC2)c([N+](=O)[O-])c1	inconclusive: -33.5%
COc1ccc(N2CCN(CCOc3ccc4c(C)cc(=O)oc4c3)CC2)cc1	active: -50.9%
CC(=O)c1ccc(S(=O)(=O)NCCC(=O)NCCc2c[nH]c3ccccc23)cc1	inactive: 7.68%
O=S(=O)(/C(=C/c1ccc(C(F)(F)F)cc1)c1nc2ccccc2[nH]1)c1ccccc1	active: -77.2%
O=C(CSc1nnc(-c2ccco2)n1Cc1ccccc1)OC1CCCCC1	inactive: -5.45%
CCC(c1nnnn1Cc1ccco1)N1CCN(C(=O)c2ccco2)CC1 (stereo unspecified)	inconclusive: -35.9%
O=C(COC(=O)c1ccc(S(=O)(=O)NCc2ccco2)cc1)NCc1ccc(F)cc1	inactive: -19.6%
Fc1ccc(-c2nnc3ccc(N4CCc5ccccc5C4)nn23)cc1	inconclusive: -31.5%
COC(=O)C(N)Cc1ccc(O)c(O)c1 (stereo unspecified)	inactive: -10.8%
O=C(Nc1ccccc1)c1nn(-c2ccccc2)c(=O)cc1C(F)(F)F	active: -50.4%
CCOC(=O)/C=c1\s/c(=C\c2ccc3cc(OC)ccc3c2)c(=O)n1CC(=O)NCc1ccc2c(c1)OCO2	inconclusive: -45.5%
COc1ccccc1N1CCN(Cc2cc(=O)n3ccsc3n2)CC1	inactive: -29.9%
COc1ccc(C(=O)COC(=O)CCN2C(=O)C3C4C=CC(C5CC45)C3C2=O)cc1 (stereo unspecified)	inactive: -4.94%
CCCCCC[N+](C)(C)CC/C=C1/c2ccccc2Sc2ccc(Cl)cc21	active: -105%
CSc1ccccc1NC(=S)N/N=C/c1cccn1Cc1ccc(F)cc1	inactive: 6.59%
CC1CN(C2CCN(C(=O)c3ccccc3)CC2)CC(C)O1 (stereo unspecified)	inconclusive: -33.7%
COc1cccc(C=NNC(=S)NN=Cc2cccc(OC)c2OC)c1OC	inactive: 18.9%

Some of the entries so far, with bars between the fields:
Structure (SMILES) | max response, negative = inhibition
O=C(CSc1nnc(-c2ccco2)n1Cc1ccccc1)OC1CCCCC1 | inactive: -5.45%
CCC(c1nnnn1Cc1ccco1)N1CCN(C(=O)c2ccco2)CC1 (stereo unspecified) | inconclusive: -35.9%
O=C(COC(=O)c1ccc(S(=O)(=O)NCc2ccco2)cc1)NCc1ccc(F)cc1 | inactive: -19.6%
Fc1ccc(-c2nnc3ccc(N4CCc5ccccc5C4)nn23)cc1 | inconclusive: -31.5%
COC(=O)C(N)Cc1ccc(O)c(O)c1 (stereo unspecified) | inactive: -10.8%
